# Results are given in words; binding and its absence hold for the method and conditions named. Some binding calls cover weakened binding; strength is not graded here.
# Target: DacA_(1–287) (Mycobacterium tuberculosis H37Rv) (UniProt P9WNW5)
# Experiment: SEC; gel filtration of the truncated proteins, data not shown; both purified
binder,measurement,value
"DacA_(1–287) (domain or fragment, also called first 287 aa of DacA; DacA lacking the C-terminal HhH domain) MHAVTRPTLREAVARLAPGTGLRDGLERILRGRTGALIVLGHDENVEAICDGGFSLDVRYAATRLRELCKMDGAVVLSTDGSRIVRANVQLVPDPSIPTDESGTRHRSAERAAIQTGYPVISVSHSMNIVTVYVRGERHVLTDSATILSRANQAIATLERYKTRLDEVSRQLSRAEIEDFVTLRDVMTVVQRLELVRRIGLVIDYDVVELGTDGRQLRLQLDELLGGNDTARELIVRDYHANPEPPSTGQINATLDELDALSDGDLLDFTALAKVFGYPTTTEAQDS",binding,binds

# From article PMC3328451, “Mycobacterium tuberculosis Rv3586 (DacA) Is a Diadenylate Cyclase That Converts ATP or ADP into c-di-AMP” (PLoS ONE, 2012)
